Assay results reported in patent US20050003000A1, “Method for the formation of ibuprofen crystals” (priority 2001, published 2005).

Experiment: Powder dissolution / in vitro release rate of the pure active compound, phosphate buffer pH 7.4 USP XXIV, paddle process 100 rpm
Format: physicochemical
Description: The measurements of the release rate was carried out according to USP XXIV.
• 1. 80 g of ibuprofen are dissolved in 100 ml of isopropanol at 40° C. Precipitation is then carried out by addition of ice water (450 ml/stirrer speed 50 rpm) during the course of 70 min. During this process cooling to 10° C. takes place. The crystals are recovered by filtration and dried in vacuo. […] 3.2 g of sucrose monolaurate are added as an additive. Precipitation is then carried out by addition of ice water (450 ml/stirrer speed 200 rpm) during the course of 70 min. During this process cooling to 10° C. takes place. The crystals are recovered by filtration, washed with ice water (3×50 ml) and dried in vacuo. […] 8 g of Tween®80 are added as an additive. Precipitation is then carried out by addition of ice water (450 ml/stirrer speed 200 rpm) during the course of 70 min. During this process cooling to 10° C. takes place. The crystals are recovered by filtration, washed with ice water (3×50 ml) and dried in vacuo. […] 80 g of ibuprofen are dissolved in 100 ml of isopropanol at 40° C. 3 g of sucrose monolaurate are added as an additive. Precipitation is then carried out by addition of ice water (450 ml/stirrer speed 200 rpm) during the course of 70 min; during this process, cooling to 10° C. takes place; the crystals are recovered by filtration, washed with ice water (3×150 ml) and dried in vacuo.

Time after which a 100% release / dissolution is seen: > 30 min | Release / dissolution within (after) 2 minutes (2 minutes): 35%
Structure (SMILES): COc1ccc2cc([C@H](C)C(=O)O)ccc2c1 [naproxen commercial article, naproxen, reference compound]
